# Experimental data as given in the supplement of paper PMC12823440, “Inhibitors supercharge kinase turnover through native proteolytic circuits” (Nature, 2025).
# Protein sequences, listed by entry. Tags and fused reporters are not part of them.
# UniProt P31152, whole entry: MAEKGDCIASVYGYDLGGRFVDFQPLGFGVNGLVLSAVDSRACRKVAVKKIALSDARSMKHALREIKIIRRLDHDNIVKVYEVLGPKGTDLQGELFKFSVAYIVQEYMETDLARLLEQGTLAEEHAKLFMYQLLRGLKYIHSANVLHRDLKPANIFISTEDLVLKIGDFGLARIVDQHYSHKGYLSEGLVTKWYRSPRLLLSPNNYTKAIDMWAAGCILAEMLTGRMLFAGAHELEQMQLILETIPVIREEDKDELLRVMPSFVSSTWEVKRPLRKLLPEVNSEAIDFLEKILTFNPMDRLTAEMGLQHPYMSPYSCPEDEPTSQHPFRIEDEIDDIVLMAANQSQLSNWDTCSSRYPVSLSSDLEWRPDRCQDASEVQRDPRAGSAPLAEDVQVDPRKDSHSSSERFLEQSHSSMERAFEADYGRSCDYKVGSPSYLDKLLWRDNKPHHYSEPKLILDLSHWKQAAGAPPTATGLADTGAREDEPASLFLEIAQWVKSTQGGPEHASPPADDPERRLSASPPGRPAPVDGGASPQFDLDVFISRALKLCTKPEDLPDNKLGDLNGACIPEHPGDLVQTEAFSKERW
# Some of the results follow. The calls rarely recur for the same compound in another form.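 Kinases were expressed as nanoluciferase fusions in K562 cells and luminescence was read every 4 h between 2 and 18 h as percent of control, DMSO set to 100% and a positive control to 0%. A time point counts as decreased when the signal drops significantly (2 sigma). The hit call is the authors' own, does not follow from the count of time points alone, and its rule is not shown.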
# Molecular target: MAPK4 (UniProt P31152)
# Experiment: number of time points (of 5) at which kinase-Nluc abundance scored as decreased, DMSO-normalised (count); higher = more persistent destabilization
# Conditions: K562; 2-18 h
row,Compound,number of time points
1,O=Nc1c(-c2c(O)[nH]c3cc(Br)ccc23)[nH]c2ccccc12 [GSK 3 Inhibitor IX] (2.5 µM),0
2,Cn1c2cc([S+](C)[O-])sc2c2cnn(Cc3cccc(N)c3)c(=O)c21 (stereo unspecified) (2.5 µM),0
3,Cc1cc(-n2c(=O)ccc3c[nH]c4nccc-4c32)ccc1F (10 µM),0
4,CCCn1/c(=N/C(=O)c2cccc(C(N)=O)c2)[nH]c2ccccc21 [Takinib] (10 µM),0
5,CO[C@H]1C[C@@H]2CC[C@@H](C)[C@@](O)(O2)C(=O)C(=O)N2CCCC[C@H]2C(=O)O[C@H]([C@H](C)C[C@@H]2CC[C@@H](OCCO)[C@H](OC)C2)CC(=O)[C@H](C)/C=C(\C)[C@@H](O)[C@@H](OC)C(=O)[C@H](C)C[C@H](C)/C=C/C=C/C=C/1C [Everolimus] (10 µM),0
6,Cc1cccc(-c2[nH]ncc2-c2ccnc3ccccc23)n1 (10 µM),0
7,CC1(N)CCN(c2cccnc2NC(=O)c2nc(-c3ncccc3C(F)(F)F)cnc2N)CC1 [Darovasertib] (10 µM),0
8,COc1cc2c(cc1Nc1ncc(C(N)=O)c(Nc3c(F)cccc3C(F)(F)F)n1)CN(C)CC2 (2.5 µM),0
9,COc1cc2ncnc(Nc3ccc(O)c(Br)c3)c2cc1OC (10 µM),0
10,Nc1nc2c(nc(Br)n2[C@@H]2O[C@@H]3COP(=O)(O)O[C@H]3[C@H]2O)c(=O)[nH]1 [8-Bromo-cGMP (sodium)] (10 µM),0
11,O=c1c2c([nH]n1-c1nc3ccccc3s1)CCCC2 (10 µM),0
